Among the data in US20170037088A1 (published 2017) are binding values, retold here.

By UniProt entry, the sequences of proteins in these tests, tags left out. Residues count along the entry.
UniProt P47871, residues 26-477: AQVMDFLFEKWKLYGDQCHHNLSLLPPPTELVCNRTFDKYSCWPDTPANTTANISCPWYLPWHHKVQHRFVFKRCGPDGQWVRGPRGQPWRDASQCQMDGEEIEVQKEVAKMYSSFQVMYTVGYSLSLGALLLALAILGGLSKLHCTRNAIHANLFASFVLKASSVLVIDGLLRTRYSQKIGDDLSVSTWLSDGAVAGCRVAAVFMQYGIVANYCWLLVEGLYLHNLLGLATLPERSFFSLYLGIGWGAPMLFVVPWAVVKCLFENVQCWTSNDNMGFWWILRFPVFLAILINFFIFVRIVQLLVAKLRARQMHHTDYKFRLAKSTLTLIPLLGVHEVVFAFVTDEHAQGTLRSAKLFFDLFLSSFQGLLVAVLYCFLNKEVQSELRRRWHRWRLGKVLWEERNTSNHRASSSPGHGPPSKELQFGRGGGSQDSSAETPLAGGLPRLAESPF

This test concerns the target glucagon receptor (UniProt P47871 26-477, limits assumed). Briefly: told in the description with reference to Example 31 (cell calcium flux assay).

No constants are given. Whether binding was seen depends on the method and setting. Some results given as binding are weak or reduced against the parent protein; the word gives no strength. Tags and fused reporters may be left off the sequences shown.

B1: glucagon-Y288 (other)
chain: HSQGTFTSDYSKYLDSRRAQDFVQWLMNTGEGSGEGSEGEGSEGSGEGEGSEGSGEGEGGSEGSEGEGGSEGSEGEGGSEGSEGEGSGEGSEGEGGSEGSEGEGSGEGSEGEGSEGGSEGEGGSEGSEGEGSGEGSEGEGGEGGSEGEGSEGSGEGEGSGEGSEGEGSEGSGEGEGSGEGSEGEGSEGSGEGEGSEGSGEGEGGSEGSEGEGSEGSGEGEGGEGSGEGEGSGEGSEGEGGGEGSEGEGSGEGGEGEGSEGGSEGEGGSEGGEGEGSEGSGEGEGSEGGSEGEGSEGGSEGEGSEGSGEGEGSEGSGE
Turning to B1, the binding result is given as “binds”.
